The target of this assay is Adig-FLAG (Adipogenin), overexpressed in adipocytes with AAVs (UniProt Q8R400). Put plainly: affinity purification with mass spectrometry.

These are yes or no findings as the source states them, for the method shown. Binding seen in cells or lysates may run through a third protein. These calls come from enrichment with a bait or labelling near it, and not all partners need be listed.

B1: LDAF1, endogenous in adipocytes (protein, UniProt Q922Z1 1-161)
chain: MAKEEPPSVSRDLQELQRKLGLLLESFLNNSKVVAFMKSPVGRFLDRHPFVTLTVLMFVTMSAIPVGFFLLIVVLTSLGALMGAILLEGLVISVCGLSLLCVLCGLGFLSLALSGIAMMSYVVVSCLMSYWFSPSRPLTQQNANVDCQLAMKFTESERLIF
B1: the binding result is recorded as “binds”.
